Laboratory results from patent US12497406B2, “Microbiocidal derivatives” (SYNGENTA CROP PROTECTION AG, priority 2019, dated 2025).
Some entries share one result that the patent states for a list of compounds.

Columns and labels:
[1] = test system: Phaeosphaeria nodorum (Septoria nodorum); experiment: Phaeosphaeria nodorum (Septoria nodorum) / wheat / leaf disc preventative (glume blotch); type: in vivo; conditions: 200 ppm; wheat leaf segments cv. Kanzler, inoculated 2 days after application; compared to untreated control
[2] = test system: Blumeria graminis f. sp. tritici (Erysiphe graminis f. sp. tritici); experiment: Blumeria graminis f. sp. tritici / wheat / leaf disc preventative (powdery mildew on wheat); type: in vivo; conditions: 200 ppm; wheat leaf segments cv. Kanzler, inoculated 1 day after application; compared to untreated control

Structure (SMILES)	control of Phaeosphaeria nodorum [1]	control of Blumeria graminis f. sp. tritici [2]
CC(C)(C)CNC(=O)c1nc(Nc2cc(F)cc(F)c2)cc2c1OCO2 [Compound P-5, 6-(3,5-difluoroanilino)-N-(2,2-dimethylpropyl)-[1,3]dioxolo[4,5-c]pyridine-4-carboxamide]	at least 80%	
CC1(C)CCC1NC(=O)c1nc(Nc2ccccc2)cc2c1OCO2 (centres unmarked) [Compound P-9, 6-anilino-N-(2,2-dimethylcyclobutyl)-[1,3]dioxolo[4,5-c]pyridine-4-carboxamide]		at least 80%
CC1(C)CCC1NC(=O)c1nc(Nc2cc(F)cc(F)c2)cc2c1OCO2 (centres unmarked) [Compound P-11, 6-(3,5-difluoroanilino)-N-(2,2-dimethylcyclobutyl)-[1,3]dioxolo[4,5-c]pyridine-4-carboxamide]	at least 80%	at least 80%
CC(C)(C)CNC(=O)c1nc(Nc2cncc(F)c2)cc2c1OCO2 [Compound P-14, N-(2,2-dimethylpropyl)-6-[(5-fluoro-3-pyridyl)amino]-[1,3]dioxolo[4,5-c]pyridine-4-carboxamide]		at least 80%
CC(C)(C)CNC(=O)c1nc(Nc2cccc(F)c2)cc2c1OCO2 [Compound P-15, N-(2,2-dimethylpropyl)-6-(3-fluoroanilino)-[1,3]dioxolo[4,5-c]pyridine-4-carboxamide]	at least 80%	
CCC(C)(C)NC(=O)c1nc(Nc2cc(F)cc(F)c2)cc2c1OCO2 [Compound P-18, 6-(3,5-difluoroanilino)-N-(1,1-dimethylpropyl)-[1,3]dioxolo[4,5-c]pyridine-4-carboxamide]	at least 80%	at least 80%
CC1(NC(=O)c2nc(Nc3cc(F)cc(F)c3)cc3c2OCO3)CCC1 [Compound P-22, 6-(3,5-difluoroanilino)-N-(1-methylcyclobutyl)-[1,3]dioxolo[4,5-c]pyridine-4-carboxamide]	at least 80%	at least 80%
CC1(NC(=O)c2nc(Nc3cc(F)cc(F)c3)cc3c2OCO3)CCCC1 [Compound P-25, 6-(3,5-difluoroanilino)-N-(1-methylcyclopentyl)-[1,3]dioxolo[4,5-c]pyridine-4-carboxamide]	at least 80%	
